We go through five molecules from patent publication US20060134119A1, “Drugs containing galectin 9” (priority 2003, published 2006).

Protein sequences, listed by entry. Tags and fused reporters are not part of them. Residues count along the entry.
UniProt O00182, residues 210-355: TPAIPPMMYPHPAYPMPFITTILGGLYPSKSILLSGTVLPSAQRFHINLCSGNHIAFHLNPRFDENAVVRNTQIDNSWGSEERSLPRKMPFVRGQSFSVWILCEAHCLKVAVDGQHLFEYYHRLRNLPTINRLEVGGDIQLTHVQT
UniProt P25705, residues 44-553: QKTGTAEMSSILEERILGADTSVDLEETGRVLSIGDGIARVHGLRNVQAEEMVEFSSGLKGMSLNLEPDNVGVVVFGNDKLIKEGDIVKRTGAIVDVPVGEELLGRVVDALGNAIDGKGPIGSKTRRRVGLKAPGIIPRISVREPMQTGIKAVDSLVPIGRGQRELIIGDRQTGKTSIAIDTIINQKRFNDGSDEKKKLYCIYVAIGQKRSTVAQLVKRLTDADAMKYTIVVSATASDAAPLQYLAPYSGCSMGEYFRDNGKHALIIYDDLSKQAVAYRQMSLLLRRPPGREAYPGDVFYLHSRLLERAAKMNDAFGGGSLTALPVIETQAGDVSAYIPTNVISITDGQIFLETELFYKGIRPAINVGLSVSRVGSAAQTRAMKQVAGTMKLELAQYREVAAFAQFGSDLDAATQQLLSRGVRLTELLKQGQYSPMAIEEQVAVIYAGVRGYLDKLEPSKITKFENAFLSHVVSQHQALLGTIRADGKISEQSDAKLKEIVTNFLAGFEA

In assay [1] the target is GST gal9CT (GST-fused galectin-9 C-terminal region, immobilised on a column) (human) (UniProt O00182). As to the kind of experiment: GST-gal9CT affinity column, MOLT-4 detergent extract after GST pre-column, 200 mM lactose elution; SDS-PAGE Band 3, LC-MS/MS (Mascot).
Assay [2] has the same target. As to the kind of experiment: GST-gal9CT affinity column, MOLT-4 detergent extract after GST pre-column, 200 mM lactose elution; SDS-PAGE Band 6, LC-MS/MS (Mascot).
Assay [3] shares this target. As to the kind of experiment: GST-gal9CT affinity column, MOLT-4 detergent extract after GST pre-column, 200 mM lactose elution; SDS-PAGE bands A + B, internal sequence analysis.
For assay [4] the target is unchanged. Put plainly: GST-gal9CT affinity column, MOLT-4 detergent extract after GST pre-column, 200 mM lactose elution; SDS-PAGE band C, internal sequence analysis.
Assay [5] shares this target. Put plainly: GST-gal9CT affinity column, MOLT-4 detergent extract after GST pre-column, 200 mM lactose elution; SDS-PAGE band D, internal sequence analysis.
The target is the same in assay [6]. As to the kind of experiment: GST-gal9CT affinity column, MOLT-4 detergent extract after GST pre-column, 200 mM lactose elution; SDS-PAGE Band 11, LC-MS/MS (Mascot).

No constants are given. Whether binding was seen depends on the method and setting. For part of these data: Binding seen in cells or lysates may run through a third protein. Some results given as binding are weak or reduced against the parent protein; the word gives no strength.

As to “ATP synthase, H^+ transporting, mitochondrial F1 complex, alpha subunit, isoform 1, cardiac muscle (from UniProt P25705 44-553) (enzyme)”, the binding result in assay [1] and in assay [2] was “binds” throughout.
“ATP synthase, alpha chain (from UniProt P25705 44-553) (enzyme)”: in assay [3], the binding result was “binds”.
With “Sodium/potassium-transporting ATPase beta-3 chain (from UniProt P54709 1-279)”, the binding entry in assay [4] is reported as “binds”.

B1: ADP, ATP carrier protein (protein, human, UniProt P12236 2-298, looked up)
chain: TEQAISFAKDFLAGGIAAAISKTAVAPIERVKLLLQVQHASKQIAADKQYKGIVDCIVRIPKEQGVLSFWRGNLANVIRYFPTQALNFAFKDKYKQIFLGGVDKHTQFWRYFAGNLASGGAAGATSLCFVYPLDFARTRLAADVGKSGTEREFRGLGDCLVKITKSDGIRGLYQGFSVSVQGIIIYRAAYFGVYDTAKGMLPDPKNTHIVVSWMIAQTVTAVAGVVSYPFDTVRRRMMMQSGRKGADIMYTGTVDCWRKIFRDEGGKAFFKGAWSNVLRGMGGAFVLVLYDELKKVI
B1: the binding result in assay [5] is reported as “binds”.

B2: mitochondrial import receptor Tom22 (receptor, human, UniProt Q9NS69 2-142, looked up)
chain: AAAVAAAGAGEPQSPDELLPKGDAEKPEEELEEDDDEELDETLSERLWGLTEMFPERVRSAAGATFDLSLFVAQKMYRFSRAALWIGTTSFMILVLPVVFETEKLQMEQQQQLQQRQILLGPNTGLSGGMPGALPSLPGKI
As to B2, the binding result in assay [6] is “binds”.
